Source: US20180250393A1, “MANIPULATION OF T CELL AND MAST CELL ACTIVATION BY PIK3IP1” (UNIVERSITY OF PITTSBURGH-OF THE COMMONWEALTH SYSTEM OF …, priority 2017, published 2018)
Some results were stated once for a whole list of compounds, not compound by compound.

Test system: Naïve T cells from WT and KO mice
Test: Th1 differentiation assay with PI3K/Akt pathway inhibitors, IFN-γ expression by flow cytometry
Type: cell-based, mouse
Conditions: TrIP KO T cells, Th1 conditions, three days, re-stimulated with PMA/Ionomycin
Description: (A) Naïve T cells from WT and KO mice were cultured under Th1 conditions for three days in the presence of PI3K inhibitors (Akti, LY294002 and IC-87114), re-stimulated with PMA/Ionomycin and analyzed for IFNγ and CD25 expression. (B) Quantitation of A. p values were calculated using two-way ANOVA with Sidak's multiple comparisons test. p values are represented with the following symbols: *0.01-0.05, **0.001-0.01, ***<0.001. Data are representative of more than three experiments.
CD4 T cells from spleens and lymph nodes of naïve mice were purified by magnetic separation using the Miltenyi Biotec naïve CD4 T cell isolation kit (Cat#130-104-453). The purity of the final cell population was >90%. […] Cells were then harvested and analyzed by flow cytometry.
In order to determine whether the difference in Th1 polarization was actually due to the absence of PI3K modulation by TrIP, the Th1 differentiation assay was performed on WT and KO T cells with the addition of moderate concentrations of PI3K/Akt pathway inhibitors. […] At the end of culture, cells were re-stimulated with PMA/Ionomycin and evaluated by flow cytometry for IFN-γ expression. […]

SMILES: O=c1cc(N2CCOCC2)oc2c(-c3ccccc3)cccc12 [LY294002]
- concentration at which IFN-γ production by KO cells was significantly inhibited: ≤ 0.5 µM
